Measured values published in paper PMC7819943, “Rice protein-binding microarrays: a tool to detect cis-acting elements near promoter regions in rice”.
The list shows a part of the results.

Amino acid sequences for entries named in this document (tags omitted).
UniProt Q0JBA9, entry or part of it: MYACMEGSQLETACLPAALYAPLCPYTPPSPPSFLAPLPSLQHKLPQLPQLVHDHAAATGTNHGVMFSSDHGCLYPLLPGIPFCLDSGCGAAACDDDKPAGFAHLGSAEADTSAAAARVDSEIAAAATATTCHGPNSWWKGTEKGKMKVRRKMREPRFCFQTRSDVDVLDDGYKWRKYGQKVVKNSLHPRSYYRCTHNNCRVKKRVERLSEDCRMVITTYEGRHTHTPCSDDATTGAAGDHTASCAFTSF

Biological target: OsWRKY34 (Oryza sativa, UniProt Q0JBA9 1-250)
Assay: protein-binding microarray (RPBM); PBS, 2% BSA, 51.3 ng/ul salmon testes DNA, 50 uM zinc acetate, 200 nM TF, 25 C, 1 h; high values mean tight binding
Settings: protein: recombinant; tags: N-terminal polyhistidine and DsRed monomer fusion (pET32a); label: CyDye5-dUTP incorporated in the synthesized complementary strand; 3' TTTTT single-stranded linker to array surface; dsDNA, one strand shown
How it was run: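 Transcription factors, each fused N-terminally to a polyhistidine tag and DsRed, were expressed in E. coli BL21-CodonPlus and purified on Ni–NTA. A custom Agilent array was made double-stranded by primer extension with Cy5-dUTP and blocked with 2% BSA. It was incubated with 200 nM protein in PBS, 2% BSA, salmon testes DNA and 50 µM zinc acetate at 25 °C for 1 h, then washed. The binding signal is per-feature fluorescence intensity (arbitrary units) read on an Axon 4000B scanner.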

Sequence | binding signal
CGGCGTCGACTCCTCCTGACTTCGCCCGCCGACTCCGCCGCGGAGTCACCTAGTGCAG | 8410 fluorescence intensity (a.u.)
CTAGTGCTTTGCCTTTTTATATTGGAGTTGCAAAGATTCCCGGAGTCACCTAGTGCAG | 8510 fluorescence intensity (a.u.)
GCATTGTCACACACTCCTGACTACCCTGCAACTGTTTTTTCGGAGTCACCTAGTGCAG | 8970 fluorescence intensity (a.u.)
AATTGGCTGAGTGAGGTAGTTTTGTTTTGCCCAGTTATCACGGAGTCACCTAGTGCAG | 11600 fluorescence intensity (a.u.)
CTCTCTCTCTCTCTCTCTCTCGGCTTTGGTTTGCCGCGTTCGGAGTCACCTAGTGCAG | 14100 fluorescence intensity (a.u.)
TGTCTCTACTGTTTTATCTCCTCGACATATGTTTATATCTCGGAGTCACCTAGTGCAG | 9220 fluorescence intensity (a.u.)
GAATCAAGTCAACCTGCCACATCAGCCTAAACCACTTACACGGAGTCACCTAGTGCAG | 9310 fluorescence intensity (a.u.)
TGGTACACTTCCATTGCTTCCTAAAACCATCATGACATCTCGGAGTCACCTAGTGCAG | 10400 fluorescence intensity (a.u.)
TATTACTTCCTTCGTTTCAAAATGTTTGATACCGTTGACTCGGAGTCACCTAGTGCAG | 12000 fluorescence intensity (a.u.)
GTATTTATTTTTCTTTCCTGCCCTTGATATTATTTATTATCGGAGTCACCTAGTGCAG | 8240 fluorescence intensity (a.u.)
ACTTCCCCTTTCTTTTGTGACGTGCTATTCAGTTCTCTTTCGGAGTCACCTAGTGCAG | 9640 fluorescence intensity (a.u.)
GTGCCTTTTTGTTGTGTTTGGATTGCATCTGTAGCTCCATCGGAGTCACCTAGTGCAG | 10900 fluorescence intensity (a.u.)
TTTCTCGTCTATTCATTTTCCCAGACATGCTTTTTAAAAACGGAGTCACCTAGTGCAG | 8300 fluorescence intensity (a.u.)
CGTCCCTCACCACATTCGCTGTCGCCGTCCTCCGCACCCTCGGAGTCACCTAGTGCAG | 10700 fluorescence intensity (a.u.)
TTAATTTTTTTCTCATTTGTGCGTCCTATGGTCAAGCGTCCGGAGTCACCTAGTGCAG | 8490 fluorescence intensity (a.u.)
CCCTCCTCGTCCGCTCGTCATCCTCGACTTGACCCTCGACCGGAGTCACCTAGTGCAG | 10100 fluorescence intensity (a.u.)
TGGGTGGTATGGTAGGGCCCTGATTGTGTTGGTCCTTTTGCGGAGTCACCTAGTGCAG | 11400 fluorescence intensity (a.u.)
ATGGCATTATTTTTTTCTCCCATCTCTCTTTCTCTCACTACGGAGTCACCTAGTGCAG | 8370 fluorescence intensity (a.u.)
CCTTTTTCACCTTAACTAATCACATCATTTTTCATTTAATCGGAGTCACCTAGTGCAG | 8270 fluorescence intensity (a.u.)
CACATCACACCACTGCATACCTGTATTCCATCGAACAACCCGGAGTCACCTAGTGCAG | 8860 fluorescence intensity (a.u.)
TCTTTGTCTCATTATCTGCAACGTGCCCACCCACCAGTCCCGGAGTCACCTAGTGCAG | 9360 fluorescence intensity (a.u.)

Laid out differently: results already given.
Sequence	binding signal
CTAGTGCTTTGCCTTTTTATATTGGAGTTGCAAAGATTCCCGGAGTCACCTAGTGCAG	8510 fluorescence intensity (a.u.)
ACTTCCCCTTTCTTTTGTGACGTGCTATTCAGTTCTCTTTCGGAGTCACCTAGTGCAG	9640 fluorescence intensity (a.u.)
CCTTTTTCACCTTAACTAATCACATCATTTTTCATTTAATCGGAGTCACCTAGTGCAG	8270 fluorescence intensity (a.u.)

Later entries:

Sequence | binding signal
TGGCCACGGCGACGACATGGCCGCCCACCACTGTTCAACCCGGAGTCACCTAGTGCAG | 8910 fluorescence intensity (a.u.)
CTTATAGCCTACTATTATGCCTGCTCTGAGCACCTCTATTCGGAGTCACCTAGTGCAG | 8690 fluorescence intensity (a.u.)
TAGTCCTTGTCGTTTCCATGTAGAACTCTGGTTGTCTTTCCGGAGTCACCTAGTGCAG | 9720 fluorescence intensity (a.u.)
GATACTGTTTTCGCAAAACTAATACTCCCTCCGTTTTTTACGGAGTCACCTAGTGCAG | 8610 fluorescence intensity (a.u.)
CGGTCACCTCCTCCACCTCCTCCCGCACCGCCGCCCGCCACGGAGTCACCTAGTGCAG | 9180 fluorescence intensity (a.u.)
CATAGAAGTTGCATTGCTCTGTCCTTGTCTCTGCTCTGCCCGGAGTCACCTAGTGCAG | 9920 fluorescence intensity (a.u.)
GGGGAGGGAAGGGATGGATCGGATGCGGGTTCGGGCGGTTCGGAGTCACCTAGTGCAG | 8910 fluorescence intensity (a.u.)
GCTGTCGTCTCTCGCCACCGCATACCGCCCACCCAACCCACGGAGTCACCTAGTGCAG | 11500 fluorescence intensity (a.u.)
ATATCTCTTCGTTCCTTTTGCGACAGCATCGGCGTACCAGCGGAGTCACCTAGTGCAG | 9330 fluorescence intensity (a.u.)
ATGGGTGGAAAATTTGGAGATTGACCTGTTGACTTAGGGTCGGAGTCACCTAGTGCAG | 8940 fluorescence intensity (a.u.)
CTGTCATTTCAGTTCTCTGTAGATTTTCGTGGGAGGCAATCGGAGTCACCTAGTGCAG | 8180 fluorescence intensity (a.u.)
ATCCCCACACGTGGGACCCACGTGAGGCCCACGCTGACTCCGGAGTCACCTAGTGCAG | 9690 fluorescence intensity (a.u.)
GCATATCAGCATCTCCATCGCCATCGGCTGCAGTTTTTCCCGGAGTCACCTAGTGCAG | 9080 fluorescence intensity (a.u.)
CCCTCCCCGTCGCCGTCACTCTCGCTCTCGCGCTCCCAGCCGGAGTCACCTAGTGCAG | 8210 fluorescence intensity (a.u.)
GGCAATTATAGTCAACTTTATCCGTTAGAGAGACATTCATCGGAGTCACCTAGTGCAG | 9500 fluorescence intensity (a.u.)
CCCTGCACGCATCCTCTCCGCCATTTTTCCGCCGCATCTGCGGAGTCACCTAGTGCAG | 14700 fluorescence intensity (a.u.)
CCATTTATAGGCATCATATACTGACCAAACCACACTCCGACGGAGTCACCTAGTGCAG | 8640 fluorescence intensity (a.u.)
GACTGGGAGGATGAGGGGTGGGTGGGTGTGGCTGCTTCTGCGGAGTCACCTAGTGCAG | 19100 fluorescence intensity (a.u.)
TTGGGGCGTGGGCGGTGGCGTGTTCAAGGCGGGGAGCTACCGGAGTCACCTAGTGCAG | 11600 fluorescence intensity (a.u.)
CGTATCGCGCGTGATCTCTCGTCGTCAACCGCTGCTTGCTCGGAGTCACCTAGTGCAG | 8700 fluorescence intensity (a.u.)
TTATAATACTGTATTCTTTCACACATCACCTTTTATCTCACGGAGTCACCTAGTGCAG | 8360 fluorescence intensity (a.u.)
